# Experimental data from paper PMC12817933.
# No constants are given. Whether binding was seen depends on the method and setting. Binding seen in cells or lysates may run through a third protein. Some binding calls cover weakened binding; strength is not graded here. Tags and fused reporters may be left off the sequences shown.
# B1: Drosophila Sting-V5 (protein, UniProt A0A0B4LFY9 1-343)
# chain: MAIASNVVEAGNAVRAEKGRKYFYFRKMIGDYIDTSIRIVATVFLADLLLRLYRCVVEYGSNGRYYLPEDRLWIILRRSCTYNNRSIYLIVGFLLVAFFRISVTGNYRNVMPTTLFLFQMPLYWIWSFTDMDQSTLSYSHWIRDSHGLDYAAGMASNYFHGYLKLSLPERKDDGLKHRLAMYEDKNNVTFGIKRLVILIPDEMFVNGVLESHLLDKAEPLETQFINRAGVYRPFKHDVYRMNKKVNGRTYYFAVEGATPMISFFDATYSNLSGTWQMQELKREIWIKFYKHLKELITTWPETRDLVELIIYNSHDSKGNLVDVGELLVAHMQNKTKTIDEISN
# Biological target: CrPV 2B-eGFP fusion protein (WT) (cricket paralysis virus) (UniProt Q9IJX4)
# Assay: co-IP; GFP-Trap magnetic agarose on lysates of cells co-transfected with eGFP, 2B-eGFP or 2B(D29N)-eGFP and Sting-V5; lysis buffer 10 mM Tris-HCl pH 7.5, 150 mM NaCl, 0.5 mM EDTA, 0.5% NP-40, 1 mM PMSF; 1 h at 4°C; four washes with 0.05% NP40; western blot with eGFP, V5 and GAPDH antibodies
binder,measurement,value
B1,binding,binds
